Test results from the supplement of paper PMC6411743.
± gives the standard deviation of the averaged measurements. The list shows a part of the results, in another mix than the full data. Most values lie at the level of the controls, where differences are scatter.

By UniProt entry, the sequences of proteins in these tests, tags left out. Where a name states a change or a piece, a line headed by the entry shows the natural chain unless it says otherwise.
UniProt Q9P258, whole entry: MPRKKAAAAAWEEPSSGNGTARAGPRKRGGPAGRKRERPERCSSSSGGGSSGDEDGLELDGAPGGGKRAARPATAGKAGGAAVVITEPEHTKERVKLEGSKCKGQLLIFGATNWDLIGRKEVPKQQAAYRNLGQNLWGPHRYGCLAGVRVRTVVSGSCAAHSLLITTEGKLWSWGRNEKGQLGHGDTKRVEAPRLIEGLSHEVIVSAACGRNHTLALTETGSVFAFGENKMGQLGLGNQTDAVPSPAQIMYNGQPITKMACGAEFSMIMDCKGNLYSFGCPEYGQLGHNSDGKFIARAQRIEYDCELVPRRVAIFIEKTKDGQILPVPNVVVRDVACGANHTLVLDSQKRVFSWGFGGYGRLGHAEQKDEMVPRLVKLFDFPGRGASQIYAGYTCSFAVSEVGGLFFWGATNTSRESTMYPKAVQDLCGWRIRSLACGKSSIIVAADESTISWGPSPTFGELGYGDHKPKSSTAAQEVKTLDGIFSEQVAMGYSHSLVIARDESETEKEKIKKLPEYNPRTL
UniProt Q9P2R7: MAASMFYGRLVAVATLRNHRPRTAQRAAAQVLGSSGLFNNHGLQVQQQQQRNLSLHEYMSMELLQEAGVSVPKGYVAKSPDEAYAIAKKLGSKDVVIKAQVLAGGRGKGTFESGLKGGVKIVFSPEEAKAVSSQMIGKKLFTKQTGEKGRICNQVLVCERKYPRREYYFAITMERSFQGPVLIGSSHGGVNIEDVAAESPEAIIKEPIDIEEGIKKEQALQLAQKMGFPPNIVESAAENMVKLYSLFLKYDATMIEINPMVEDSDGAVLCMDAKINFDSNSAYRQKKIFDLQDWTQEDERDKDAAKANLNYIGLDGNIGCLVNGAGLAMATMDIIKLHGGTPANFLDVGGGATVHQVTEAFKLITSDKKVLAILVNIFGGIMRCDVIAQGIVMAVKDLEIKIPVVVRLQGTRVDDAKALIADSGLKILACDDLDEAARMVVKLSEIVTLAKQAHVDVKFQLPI
UniProt Q9NR31: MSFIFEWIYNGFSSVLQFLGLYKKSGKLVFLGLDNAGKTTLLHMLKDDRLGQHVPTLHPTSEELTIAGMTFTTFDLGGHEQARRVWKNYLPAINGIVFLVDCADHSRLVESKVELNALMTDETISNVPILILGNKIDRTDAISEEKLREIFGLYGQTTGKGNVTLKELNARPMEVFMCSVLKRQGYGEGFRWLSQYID
UniProt Q9NR12, whole entry: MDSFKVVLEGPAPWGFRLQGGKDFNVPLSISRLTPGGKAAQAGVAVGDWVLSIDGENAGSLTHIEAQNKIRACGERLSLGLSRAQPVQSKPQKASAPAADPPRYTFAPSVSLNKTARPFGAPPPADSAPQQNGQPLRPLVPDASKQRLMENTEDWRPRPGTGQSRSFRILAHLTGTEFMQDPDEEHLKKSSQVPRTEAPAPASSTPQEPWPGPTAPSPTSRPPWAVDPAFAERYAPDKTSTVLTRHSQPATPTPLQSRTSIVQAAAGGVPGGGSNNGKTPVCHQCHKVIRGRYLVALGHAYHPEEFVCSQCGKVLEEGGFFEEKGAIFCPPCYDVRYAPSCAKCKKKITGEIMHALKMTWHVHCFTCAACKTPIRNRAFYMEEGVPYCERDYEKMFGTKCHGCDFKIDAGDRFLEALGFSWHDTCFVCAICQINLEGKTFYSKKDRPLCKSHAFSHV
UniProt Q9NVA1: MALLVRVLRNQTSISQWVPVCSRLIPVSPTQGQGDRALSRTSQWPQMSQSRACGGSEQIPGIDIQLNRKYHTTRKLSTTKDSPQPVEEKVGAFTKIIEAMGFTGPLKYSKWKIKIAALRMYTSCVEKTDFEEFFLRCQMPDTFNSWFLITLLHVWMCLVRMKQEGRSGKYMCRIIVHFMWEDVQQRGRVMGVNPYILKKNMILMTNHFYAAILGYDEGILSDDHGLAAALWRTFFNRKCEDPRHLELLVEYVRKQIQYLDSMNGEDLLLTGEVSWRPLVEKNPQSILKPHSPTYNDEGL
UniProt Q9P032: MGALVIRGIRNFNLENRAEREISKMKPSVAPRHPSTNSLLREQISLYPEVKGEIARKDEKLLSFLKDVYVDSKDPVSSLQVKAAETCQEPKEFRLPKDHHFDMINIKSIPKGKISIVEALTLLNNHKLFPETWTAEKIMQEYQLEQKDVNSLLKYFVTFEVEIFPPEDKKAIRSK
UniProt Q9NQ66: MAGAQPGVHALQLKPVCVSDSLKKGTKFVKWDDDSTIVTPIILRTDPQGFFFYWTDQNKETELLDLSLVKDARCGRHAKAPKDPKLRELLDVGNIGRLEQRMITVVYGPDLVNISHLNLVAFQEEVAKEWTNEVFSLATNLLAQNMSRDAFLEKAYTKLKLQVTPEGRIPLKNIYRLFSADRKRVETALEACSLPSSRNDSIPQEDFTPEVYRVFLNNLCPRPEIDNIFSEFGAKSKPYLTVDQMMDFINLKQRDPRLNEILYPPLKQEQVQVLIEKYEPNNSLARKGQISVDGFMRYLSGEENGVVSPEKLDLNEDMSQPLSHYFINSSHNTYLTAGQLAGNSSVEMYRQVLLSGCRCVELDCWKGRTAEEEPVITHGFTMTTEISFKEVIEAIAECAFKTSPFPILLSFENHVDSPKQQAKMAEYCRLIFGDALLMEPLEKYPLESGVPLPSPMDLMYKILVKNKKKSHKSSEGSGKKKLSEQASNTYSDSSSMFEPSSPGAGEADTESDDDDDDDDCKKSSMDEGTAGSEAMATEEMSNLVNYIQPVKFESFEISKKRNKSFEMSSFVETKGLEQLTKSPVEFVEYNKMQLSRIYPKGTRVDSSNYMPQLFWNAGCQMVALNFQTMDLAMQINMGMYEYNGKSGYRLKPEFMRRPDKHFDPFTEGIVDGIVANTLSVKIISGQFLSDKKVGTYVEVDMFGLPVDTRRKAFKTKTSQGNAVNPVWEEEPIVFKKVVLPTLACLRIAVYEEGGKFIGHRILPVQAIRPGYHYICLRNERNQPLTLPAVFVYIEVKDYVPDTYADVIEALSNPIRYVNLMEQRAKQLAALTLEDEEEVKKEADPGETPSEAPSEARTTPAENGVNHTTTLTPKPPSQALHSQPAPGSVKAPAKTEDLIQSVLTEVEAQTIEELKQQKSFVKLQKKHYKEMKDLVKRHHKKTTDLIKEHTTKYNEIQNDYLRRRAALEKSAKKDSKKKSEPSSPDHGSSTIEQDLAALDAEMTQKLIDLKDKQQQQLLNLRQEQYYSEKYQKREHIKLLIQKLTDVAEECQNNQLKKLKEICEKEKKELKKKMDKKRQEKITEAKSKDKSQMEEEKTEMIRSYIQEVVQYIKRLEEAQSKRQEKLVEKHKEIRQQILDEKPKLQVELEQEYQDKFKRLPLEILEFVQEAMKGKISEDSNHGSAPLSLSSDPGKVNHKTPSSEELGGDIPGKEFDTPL
UniProt Q9UBF2: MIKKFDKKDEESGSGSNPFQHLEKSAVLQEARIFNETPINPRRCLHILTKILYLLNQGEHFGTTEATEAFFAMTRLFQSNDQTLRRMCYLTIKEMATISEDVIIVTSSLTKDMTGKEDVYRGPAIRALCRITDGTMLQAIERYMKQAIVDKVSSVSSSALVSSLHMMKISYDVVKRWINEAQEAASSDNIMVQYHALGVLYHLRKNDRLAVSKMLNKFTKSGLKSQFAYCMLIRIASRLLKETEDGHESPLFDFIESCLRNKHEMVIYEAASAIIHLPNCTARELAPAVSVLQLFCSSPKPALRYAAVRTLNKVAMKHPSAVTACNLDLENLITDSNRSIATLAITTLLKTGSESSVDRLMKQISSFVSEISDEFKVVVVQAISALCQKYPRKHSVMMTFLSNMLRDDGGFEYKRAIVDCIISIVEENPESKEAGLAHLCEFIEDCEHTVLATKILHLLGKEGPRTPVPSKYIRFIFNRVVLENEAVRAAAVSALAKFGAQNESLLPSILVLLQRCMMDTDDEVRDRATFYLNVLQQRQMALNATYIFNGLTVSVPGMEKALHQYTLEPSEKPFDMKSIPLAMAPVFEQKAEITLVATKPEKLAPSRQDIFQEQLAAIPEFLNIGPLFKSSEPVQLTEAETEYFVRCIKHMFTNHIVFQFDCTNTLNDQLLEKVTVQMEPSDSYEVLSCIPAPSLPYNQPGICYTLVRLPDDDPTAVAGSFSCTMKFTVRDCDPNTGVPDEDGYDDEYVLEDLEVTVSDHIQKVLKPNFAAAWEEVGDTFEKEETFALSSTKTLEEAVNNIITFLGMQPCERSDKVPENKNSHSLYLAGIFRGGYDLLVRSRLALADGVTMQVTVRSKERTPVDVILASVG
UniProt Q9NRP0: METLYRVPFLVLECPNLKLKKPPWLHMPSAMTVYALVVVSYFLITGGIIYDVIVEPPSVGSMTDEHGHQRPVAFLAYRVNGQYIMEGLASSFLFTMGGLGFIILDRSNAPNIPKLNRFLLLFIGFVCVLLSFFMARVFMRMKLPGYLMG
UniProt Q9NWS6: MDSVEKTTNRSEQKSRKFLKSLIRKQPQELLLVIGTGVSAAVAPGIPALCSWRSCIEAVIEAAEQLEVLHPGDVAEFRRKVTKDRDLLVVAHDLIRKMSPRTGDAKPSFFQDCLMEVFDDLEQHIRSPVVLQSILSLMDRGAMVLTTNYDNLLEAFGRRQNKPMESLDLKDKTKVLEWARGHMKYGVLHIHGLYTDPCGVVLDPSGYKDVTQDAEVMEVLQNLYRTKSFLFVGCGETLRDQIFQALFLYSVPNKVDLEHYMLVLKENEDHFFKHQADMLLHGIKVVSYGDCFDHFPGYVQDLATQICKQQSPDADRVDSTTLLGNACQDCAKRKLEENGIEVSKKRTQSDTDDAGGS
UniProt Q9P0J1: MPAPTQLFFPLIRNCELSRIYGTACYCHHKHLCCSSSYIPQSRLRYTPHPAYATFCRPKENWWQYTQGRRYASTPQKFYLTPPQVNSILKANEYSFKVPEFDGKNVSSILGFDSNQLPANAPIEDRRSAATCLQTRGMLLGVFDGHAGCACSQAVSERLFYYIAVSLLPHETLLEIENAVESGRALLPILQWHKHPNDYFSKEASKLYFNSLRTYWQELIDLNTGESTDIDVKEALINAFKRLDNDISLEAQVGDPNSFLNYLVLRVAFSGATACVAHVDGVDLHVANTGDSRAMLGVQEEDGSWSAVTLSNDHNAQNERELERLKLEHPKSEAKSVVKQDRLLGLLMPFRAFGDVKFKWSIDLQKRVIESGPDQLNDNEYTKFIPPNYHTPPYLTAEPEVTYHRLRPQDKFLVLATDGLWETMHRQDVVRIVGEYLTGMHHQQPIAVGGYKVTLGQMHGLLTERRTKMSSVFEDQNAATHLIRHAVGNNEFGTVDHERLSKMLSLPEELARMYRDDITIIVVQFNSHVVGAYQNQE
UniProt Q9NVM9, whole entry: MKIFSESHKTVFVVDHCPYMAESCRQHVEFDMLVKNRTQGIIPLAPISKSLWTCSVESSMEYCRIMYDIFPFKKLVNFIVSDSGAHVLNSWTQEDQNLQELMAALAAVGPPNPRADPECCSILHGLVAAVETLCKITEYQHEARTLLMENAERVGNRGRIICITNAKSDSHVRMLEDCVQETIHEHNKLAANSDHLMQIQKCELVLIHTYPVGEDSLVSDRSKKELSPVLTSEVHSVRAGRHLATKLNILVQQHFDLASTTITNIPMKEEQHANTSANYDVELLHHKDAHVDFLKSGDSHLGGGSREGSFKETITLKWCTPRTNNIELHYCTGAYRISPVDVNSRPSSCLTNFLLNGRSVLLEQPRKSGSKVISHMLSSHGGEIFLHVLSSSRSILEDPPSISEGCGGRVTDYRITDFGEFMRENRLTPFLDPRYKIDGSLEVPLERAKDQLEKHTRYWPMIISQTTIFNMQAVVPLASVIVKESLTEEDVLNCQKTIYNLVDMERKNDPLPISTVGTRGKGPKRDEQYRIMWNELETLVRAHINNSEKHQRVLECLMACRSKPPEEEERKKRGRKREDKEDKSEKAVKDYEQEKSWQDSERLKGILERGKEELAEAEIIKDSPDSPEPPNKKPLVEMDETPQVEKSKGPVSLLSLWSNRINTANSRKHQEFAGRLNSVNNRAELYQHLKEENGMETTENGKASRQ
UniProt Q9NZI8, whole entry: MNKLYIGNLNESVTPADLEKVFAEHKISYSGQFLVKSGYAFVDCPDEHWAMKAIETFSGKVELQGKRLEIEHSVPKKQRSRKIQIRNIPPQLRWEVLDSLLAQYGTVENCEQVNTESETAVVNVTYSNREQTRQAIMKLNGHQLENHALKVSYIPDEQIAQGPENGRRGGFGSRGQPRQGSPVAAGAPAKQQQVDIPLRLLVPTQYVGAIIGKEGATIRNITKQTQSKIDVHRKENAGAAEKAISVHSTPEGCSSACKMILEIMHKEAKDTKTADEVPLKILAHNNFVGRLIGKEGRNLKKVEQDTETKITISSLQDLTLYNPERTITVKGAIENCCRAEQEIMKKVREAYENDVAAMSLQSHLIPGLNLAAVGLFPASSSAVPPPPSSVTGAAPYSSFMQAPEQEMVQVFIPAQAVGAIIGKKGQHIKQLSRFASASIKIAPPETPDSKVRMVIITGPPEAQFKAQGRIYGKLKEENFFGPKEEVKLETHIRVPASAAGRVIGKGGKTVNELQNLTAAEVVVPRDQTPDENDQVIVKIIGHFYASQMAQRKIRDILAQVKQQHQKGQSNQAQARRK

Compound: Nc1ncnc2c1ncn2[C@@H]1O[C@H](COP(=O)(O)OP(=O)(O)NP(=O)(O)O)[C@@H](O)[C@H]1O [adenylyl imidodiphosphate]
Test: NP40-soluble protein abundance relative to vehicle (solubility fold change) (ratio); higher = more soluble protein in presence of AMP-PNP
In short: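 Eight concentrations, 0.1 to 10 mM, were tested on Jurkat crude lysate for 10 min at room temperature and then 3 min at 37 °C, in three independent experiments. The lysate was solubilised with 0.8% NP40 and benzonase, ultracentrifuged, and the supernatant TMT-labelled for LC-MS/MS. Each value is the fold change against the detergent-processed vehicle in its own replicate, from vsn-normalised intensities.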

| Target | NP40-soluble protein abundance (concentration: 0.1mM) | NP40-soluble protein abundance (concentration: 0.5mM) |
| --- | --- | --- |
| RCC2 (UniProt Q9P258) | 0.9916 ± 0.0042 | 0.994 ± 0.02 |
| RBM27 (UniProt Q9P2N5) | 0.995 ± 0.014 | 1.04 ± 0.053 |
| UniProt Q9P2R7 and related entries | 0.9695 ± 0.0067 | 1 ± 0.012 |
| UniProt Q9NQ29 and related entries | 1.05 ± 0.02 | 1.03 ± 0.064 |
| UniProt Q9NYM9 and related entries | 0.963 ± 0.037 | 0.998 ± 0.033 |
| MRPL40 (UniProt Q9NQ50) | 1 ± 0.032 | 0.982 ± 0.044 |
| UniProt Q9NR31 and related entries | 0.972 ± 0.064 | 0.931 ± 0.16 |
| UniProt Q9NYJ8 | 0.911 ± 0.079 | 0.91 ± 0.076 |
| UniProt Q9NSG2 and related entries | 0.997 ± 0.01 | 0.978 ± 0.024 |
| PDLIM7 (UniProt Q9NR12) | 0.978 ± 0.041 | 0.9729 ± 0.0066 |
| UniProt Q9NVA1 and related entries | 1.02 ± 0.043 | 0.986 ± 0.037 |
| UniProt Q9P032 | 0.978 ± 0.034 | 1 ± 0.05 |
| RMND1 (UniProt Q9NWS8) | 0.991 ± 0.061 | 0.985 ± 0.031 |
| UniProt Q9NQ66 and related entries | 1.03 ± 0.026 | 1.01 ± 0.011 |
| COPG2 (UniProt Q9UBF2) | 1.02 ± 0.02 | 1.03 ± 0.024 |
| OSTC (UniProt Q9NRP0) | 1.03 ± 0.0054 | 1.03 ± 0.03 |
| FAM118A (UniProt Q9NWS6) | 0.971 ± 0.029 | 1 ± 0.016 |
| UniProt Q9P0J1 and related entries | 0.997 ± 0.012 | 0.983 ± 0.03 |
| UniProt Q9P0W2 and related entries | 0.997 ± 0.051 | 0.973 ± 0.039 |
| VPS18 (UniProt Q9P253) | 1.03 ± 0.056 | 0.998 ± 0.036 |
| UniProt Q9NS73 and related entries | 1.016 ± 0.0099 | 1.03 ± 0.028 |
| UniProt Q9NVM9 | 1 ± 0.035 | 0.987 ± 0.041 |
| IGF2BP1 (UniProt Q9NZI8) | 0.982 ± 0.029 | 1.03 ± 0.046 |

Some values from the list:
RBM27 (UniProt Q9P2N5) | NP40-soluble protein abundance (concentration: 0.5mM): 1.04 ± 0.053
RMND1 (UniProt Q9NWS8) | NP40-soluble protein abundance (concentration: 0.5mM): 0.985 ± 0.031
